Measured values published in paper PMC12607897, “Inhibition of HIV-1 replication by primer RNA packaging inhibitors” (mBio, 2025).

Protein sequences, listed by entry. Tags and fused reporters are not part of them. Chains listed by the source or under a name are the forms on record and can include a tag or linker.
UniProt Q15046, other isoform, or with tags, fused parts or gaps: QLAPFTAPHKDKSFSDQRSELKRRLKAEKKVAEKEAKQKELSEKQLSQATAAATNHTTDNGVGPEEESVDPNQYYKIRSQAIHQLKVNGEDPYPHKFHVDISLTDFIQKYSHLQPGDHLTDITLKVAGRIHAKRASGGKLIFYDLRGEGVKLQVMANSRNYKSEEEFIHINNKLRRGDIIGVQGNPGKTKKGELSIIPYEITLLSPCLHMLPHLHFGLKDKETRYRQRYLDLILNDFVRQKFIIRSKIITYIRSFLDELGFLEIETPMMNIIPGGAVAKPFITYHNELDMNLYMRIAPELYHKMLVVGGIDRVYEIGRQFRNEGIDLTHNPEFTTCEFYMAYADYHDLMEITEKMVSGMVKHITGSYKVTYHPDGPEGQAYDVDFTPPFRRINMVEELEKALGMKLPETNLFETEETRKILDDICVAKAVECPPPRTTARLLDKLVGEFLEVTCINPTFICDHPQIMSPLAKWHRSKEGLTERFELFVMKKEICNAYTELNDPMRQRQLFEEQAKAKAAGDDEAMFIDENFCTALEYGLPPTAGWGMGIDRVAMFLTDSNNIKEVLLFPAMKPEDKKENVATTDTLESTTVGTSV

Molecular target: T1, mLysRS:IN interaction (human mLysRS, HIV-1 IN) (UniProt P12497+Q15046)
T1 construct: made in house
Experiment: HTRF assay of mLysRS:IN interaction
Format: binding, human / HIV-1
Settings: dihydropyridine derivatives, Fig. S2
Method: Fig 1 Determination of the half-maximal inhibitory concentration (IC50) of the drugs in the mLysRS:IN binding assay. The binding of mLysRS to IN (red) or p38 (blue) was monitored in the HTRF assay in the presence of increasing drug concentrations (9–1,000 µM). The experimental values (symbols) were fitted (curves) to the equation Y = Ymin + {(Ymax − Ymin)/[1 + (X/IC50)^n]}, where n is the Hill coefficient. […] Proteins were isolated as described previously ([4]). Several batches of IN were used throughout this study. […] The molecules are dissolved in DMSO at a final concentration of 10 mM. After a 1 h incubation on ice, antibodies (Cisbio) directed to the His-tag and conjugated with Eu^3+ cryptate (Cisbio #61HISKLB) and the HA-tag conjugated with XL665 (Cisbio #610HAXLB) were added, and incubation was continued for 30 min. After the addition of 50 mM KF, fluorescence of Eu^3+ cryptate and of XL665 was recorded at 620 nm (I620) and 665 nm (I665), respectively, following excitation of Eu^3+ cryptate at 317 nm, in an Infinite M1000 PRO microplate reader (TECAN). The results were expressed as the ratio of I665/I620.

## COC(=O)C1=C(C)NC(C)=C(C(=O)OC)C1c1ccccc1[N+](=O)[O-] [nifedipine]
  effect on the mLysRS:IN interaction in the HTRF assay: did not significantly alter
